Test results: the supplement of paper PMC12067093, “Discovery and optimisation of a covalent ligand for TRIM25 and its application to targeted protein ubiquitination” (Chemical Science, 2025)
This is one part of the list.

Protein sequences, listed by entry. Tags and fused reporters are not part of them. Lines headed by an entry give the natural chain unless they say otherwise; changes in a name come on top.
UniProt Q96ME1: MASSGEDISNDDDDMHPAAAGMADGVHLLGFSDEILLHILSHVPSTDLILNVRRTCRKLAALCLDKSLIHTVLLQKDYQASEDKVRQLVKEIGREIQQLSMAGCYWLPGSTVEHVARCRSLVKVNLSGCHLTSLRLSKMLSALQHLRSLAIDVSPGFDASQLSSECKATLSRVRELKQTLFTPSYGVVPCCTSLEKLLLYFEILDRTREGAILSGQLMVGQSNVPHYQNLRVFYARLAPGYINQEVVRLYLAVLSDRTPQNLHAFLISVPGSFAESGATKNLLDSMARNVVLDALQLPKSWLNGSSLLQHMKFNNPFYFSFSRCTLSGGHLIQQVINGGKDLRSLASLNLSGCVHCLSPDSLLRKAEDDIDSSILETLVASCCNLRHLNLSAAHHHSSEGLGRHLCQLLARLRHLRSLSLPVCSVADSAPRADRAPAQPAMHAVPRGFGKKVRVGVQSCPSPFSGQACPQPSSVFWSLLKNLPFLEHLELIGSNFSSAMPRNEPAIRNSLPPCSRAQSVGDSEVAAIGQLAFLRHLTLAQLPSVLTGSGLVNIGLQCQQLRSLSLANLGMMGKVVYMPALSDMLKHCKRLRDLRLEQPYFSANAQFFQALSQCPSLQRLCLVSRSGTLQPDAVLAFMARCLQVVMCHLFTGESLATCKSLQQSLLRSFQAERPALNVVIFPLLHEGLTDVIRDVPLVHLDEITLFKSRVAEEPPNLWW
UniProt P49327, whole entry, looked up: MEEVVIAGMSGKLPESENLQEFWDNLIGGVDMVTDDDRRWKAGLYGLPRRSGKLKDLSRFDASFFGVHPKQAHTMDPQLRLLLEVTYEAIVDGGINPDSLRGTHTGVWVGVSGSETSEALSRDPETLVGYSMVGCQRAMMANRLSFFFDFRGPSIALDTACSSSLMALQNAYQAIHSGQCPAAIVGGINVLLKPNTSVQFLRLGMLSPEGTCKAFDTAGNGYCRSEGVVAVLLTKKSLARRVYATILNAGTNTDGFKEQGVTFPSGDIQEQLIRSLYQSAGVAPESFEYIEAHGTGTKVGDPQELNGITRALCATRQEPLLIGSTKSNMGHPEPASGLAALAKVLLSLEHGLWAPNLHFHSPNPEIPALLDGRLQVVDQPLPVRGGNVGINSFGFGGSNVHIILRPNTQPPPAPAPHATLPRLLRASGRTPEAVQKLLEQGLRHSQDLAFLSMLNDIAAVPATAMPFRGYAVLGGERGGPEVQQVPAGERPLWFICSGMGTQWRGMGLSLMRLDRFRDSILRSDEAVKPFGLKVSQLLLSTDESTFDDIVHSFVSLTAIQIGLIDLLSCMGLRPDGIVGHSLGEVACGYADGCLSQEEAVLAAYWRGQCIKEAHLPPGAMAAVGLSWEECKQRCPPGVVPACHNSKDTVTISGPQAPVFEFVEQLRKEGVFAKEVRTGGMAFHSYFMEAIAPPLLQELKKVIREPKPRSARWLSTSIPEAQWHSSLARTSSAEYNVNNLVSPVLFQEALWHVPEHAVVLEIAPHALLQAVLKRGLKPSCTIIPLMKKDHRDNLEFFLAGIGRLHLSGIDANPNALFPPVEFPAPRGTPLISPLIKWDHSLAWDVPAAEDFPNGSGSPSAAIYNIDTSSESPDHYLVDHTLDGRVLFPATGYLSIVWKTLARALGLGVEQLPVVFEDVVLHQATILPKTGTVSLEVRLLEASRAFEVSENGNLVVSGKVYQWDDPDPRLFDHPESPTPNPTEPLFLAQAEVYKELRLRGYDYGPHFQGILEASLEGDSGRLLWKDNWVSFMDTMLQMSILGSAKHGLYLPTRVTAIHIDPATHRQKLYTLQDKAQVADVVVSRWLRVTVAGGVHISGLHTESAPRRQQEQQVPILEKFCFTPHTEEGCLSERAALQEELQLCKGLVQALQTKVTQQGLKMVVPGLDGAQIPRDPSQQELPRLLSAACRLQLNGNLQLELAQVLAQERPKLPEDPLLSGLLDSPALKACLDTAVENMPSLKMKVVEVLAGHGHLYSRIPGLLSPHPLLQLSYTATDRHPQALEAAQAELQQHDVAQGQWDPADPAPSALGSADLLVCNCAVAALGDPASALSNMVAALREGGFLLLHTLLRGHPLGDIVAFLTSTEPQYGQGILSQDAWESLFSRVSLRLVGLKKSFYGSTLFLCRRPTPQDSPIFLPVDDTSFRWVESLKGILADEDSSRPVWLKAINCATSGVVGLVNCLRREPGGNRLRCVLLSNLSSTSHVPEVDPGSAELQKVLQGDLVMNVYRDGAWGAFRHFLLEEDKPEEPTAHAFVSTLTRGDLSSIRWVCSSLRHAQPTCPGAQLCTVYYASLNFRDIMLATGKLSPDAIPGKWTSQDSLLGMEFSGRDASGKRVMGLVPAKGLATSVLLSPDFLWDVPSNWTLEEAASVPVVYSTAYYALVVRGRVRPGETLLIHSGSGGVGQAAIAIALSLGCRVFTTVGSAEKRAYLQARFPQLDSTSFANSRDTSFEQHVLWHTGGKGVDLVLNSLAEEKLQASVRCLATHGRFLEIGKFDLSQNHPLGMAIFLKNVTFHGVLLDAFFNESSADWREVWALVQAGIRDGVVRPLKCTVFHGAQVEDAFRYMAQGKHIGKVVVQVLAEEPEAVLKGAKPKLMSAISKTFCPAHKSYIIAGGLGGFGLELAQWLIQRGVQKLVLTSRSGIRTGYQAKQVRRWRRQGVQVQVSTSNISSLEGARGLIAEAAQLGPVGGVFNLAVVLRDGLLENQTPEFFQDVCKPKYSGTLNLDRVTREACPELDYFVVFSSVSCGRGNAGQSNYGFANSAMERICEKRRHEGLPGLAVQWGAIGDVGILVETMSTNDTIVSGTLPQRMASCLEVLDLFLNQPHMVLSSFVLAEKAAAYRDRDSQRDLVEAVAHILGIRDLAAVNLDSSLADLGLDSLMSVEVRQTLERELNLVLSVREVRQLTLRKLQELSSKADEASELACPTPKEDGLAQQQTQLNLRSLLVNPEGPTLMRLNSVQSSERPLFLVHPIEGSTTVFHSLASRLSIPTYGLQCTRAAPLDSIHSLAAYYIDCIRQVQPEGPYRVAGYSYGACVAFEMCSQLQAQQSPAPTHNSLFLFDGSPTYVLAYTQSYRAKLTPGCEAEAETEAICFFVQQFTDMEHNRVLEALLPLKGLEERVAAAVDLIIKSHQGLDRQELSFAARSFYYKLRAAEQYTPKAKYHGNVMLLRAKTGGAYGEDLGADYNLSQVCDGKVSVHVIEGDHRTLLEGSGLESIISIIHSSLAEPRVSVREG
UniProt P22087: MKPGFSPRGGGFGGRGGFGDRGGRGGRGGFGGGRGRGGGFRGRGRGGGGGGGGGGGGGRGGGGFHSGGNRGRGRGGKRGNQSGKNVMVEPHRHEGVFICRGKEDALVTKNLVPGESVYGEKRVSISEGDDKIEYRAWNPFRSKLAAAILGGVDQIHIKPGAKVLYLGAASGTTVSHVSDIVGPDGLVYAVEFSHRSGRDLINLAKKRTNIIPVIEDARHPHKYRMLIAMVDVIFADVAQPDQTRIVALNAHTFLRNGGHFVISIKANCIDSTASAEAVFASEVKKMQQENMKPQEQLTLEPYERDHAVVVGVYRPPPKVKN
UniProt Q5HYJ3: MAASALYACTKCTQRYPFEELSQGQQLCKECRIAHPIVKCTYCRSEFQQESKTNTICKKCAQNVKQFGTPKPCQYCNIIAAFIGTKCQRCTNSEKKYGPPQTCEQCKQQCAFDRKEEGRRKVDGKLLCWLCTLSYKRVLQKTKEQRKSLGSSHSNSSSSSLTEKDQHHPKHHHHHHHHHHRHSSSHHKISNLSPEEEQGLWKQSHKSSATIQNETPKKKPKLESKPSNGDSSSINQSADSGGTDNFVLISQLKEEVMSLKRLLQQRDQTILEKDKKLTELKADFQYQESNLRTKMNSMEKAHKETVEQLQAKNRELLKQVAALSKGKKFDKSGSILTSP
UniProt Q8TB52: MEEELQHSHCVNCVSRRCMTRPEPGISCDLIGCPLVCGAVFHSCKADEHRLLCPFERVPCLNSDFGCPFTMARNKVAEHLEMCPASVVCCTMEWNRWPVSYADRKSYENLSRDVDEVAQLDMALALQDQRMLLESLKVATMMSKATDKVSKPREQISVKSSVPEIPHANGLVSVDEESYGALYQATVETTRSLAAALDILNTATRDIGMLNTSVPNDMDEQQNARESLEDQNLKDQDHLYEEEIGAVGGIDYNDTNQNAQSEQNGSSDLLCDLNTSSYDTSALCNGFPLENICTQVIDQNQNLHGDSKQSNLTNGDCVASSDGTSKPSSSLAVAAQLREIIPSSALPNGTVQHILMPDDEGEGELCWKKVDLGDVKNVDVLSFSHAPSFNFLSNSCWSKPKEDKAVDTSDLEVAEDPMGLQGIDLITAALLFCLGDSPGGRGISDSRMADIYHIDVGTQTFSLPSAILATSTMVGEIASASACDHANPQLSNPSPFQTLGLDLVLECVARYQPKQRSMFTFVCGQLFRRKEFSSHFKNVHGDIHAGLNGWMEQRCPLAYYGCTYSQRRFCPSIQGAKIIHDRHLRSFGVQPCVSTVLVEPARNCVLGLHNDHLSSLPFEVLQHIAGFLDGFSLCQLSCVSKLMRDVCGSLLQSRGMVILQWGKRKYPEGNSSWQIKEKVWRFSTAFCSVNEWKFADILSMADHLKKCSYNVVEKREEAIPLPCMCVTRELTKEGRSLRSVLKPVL
UniProt Q9NSD9: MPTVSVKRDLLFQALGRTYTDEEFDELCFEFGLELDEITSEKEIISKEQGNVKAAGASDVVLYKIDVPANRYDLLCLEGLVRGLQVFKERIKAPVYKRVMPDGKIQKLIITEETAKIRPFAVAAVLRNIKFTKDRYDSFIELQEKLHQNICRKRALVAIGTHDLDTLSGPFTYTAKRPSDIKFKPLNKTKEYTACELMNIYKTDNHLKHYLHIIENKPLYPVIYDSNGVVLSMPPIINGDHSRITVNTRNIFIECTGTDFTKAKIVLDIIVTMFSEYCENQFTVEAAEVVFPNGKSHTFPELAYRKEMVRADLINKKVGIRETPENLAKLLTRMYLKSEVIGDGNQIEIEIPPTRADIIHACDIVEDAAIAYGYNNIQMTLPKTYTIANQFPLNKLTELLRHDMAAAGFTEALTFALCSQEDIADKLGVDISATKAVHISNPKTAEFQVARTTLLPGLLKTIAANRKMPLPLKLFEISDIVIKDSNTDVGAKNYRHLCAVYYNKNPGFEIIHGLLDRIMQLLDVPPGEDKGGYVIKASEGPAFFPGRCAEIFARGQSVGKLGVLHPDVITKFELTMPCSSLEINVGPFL
UniProt O14526: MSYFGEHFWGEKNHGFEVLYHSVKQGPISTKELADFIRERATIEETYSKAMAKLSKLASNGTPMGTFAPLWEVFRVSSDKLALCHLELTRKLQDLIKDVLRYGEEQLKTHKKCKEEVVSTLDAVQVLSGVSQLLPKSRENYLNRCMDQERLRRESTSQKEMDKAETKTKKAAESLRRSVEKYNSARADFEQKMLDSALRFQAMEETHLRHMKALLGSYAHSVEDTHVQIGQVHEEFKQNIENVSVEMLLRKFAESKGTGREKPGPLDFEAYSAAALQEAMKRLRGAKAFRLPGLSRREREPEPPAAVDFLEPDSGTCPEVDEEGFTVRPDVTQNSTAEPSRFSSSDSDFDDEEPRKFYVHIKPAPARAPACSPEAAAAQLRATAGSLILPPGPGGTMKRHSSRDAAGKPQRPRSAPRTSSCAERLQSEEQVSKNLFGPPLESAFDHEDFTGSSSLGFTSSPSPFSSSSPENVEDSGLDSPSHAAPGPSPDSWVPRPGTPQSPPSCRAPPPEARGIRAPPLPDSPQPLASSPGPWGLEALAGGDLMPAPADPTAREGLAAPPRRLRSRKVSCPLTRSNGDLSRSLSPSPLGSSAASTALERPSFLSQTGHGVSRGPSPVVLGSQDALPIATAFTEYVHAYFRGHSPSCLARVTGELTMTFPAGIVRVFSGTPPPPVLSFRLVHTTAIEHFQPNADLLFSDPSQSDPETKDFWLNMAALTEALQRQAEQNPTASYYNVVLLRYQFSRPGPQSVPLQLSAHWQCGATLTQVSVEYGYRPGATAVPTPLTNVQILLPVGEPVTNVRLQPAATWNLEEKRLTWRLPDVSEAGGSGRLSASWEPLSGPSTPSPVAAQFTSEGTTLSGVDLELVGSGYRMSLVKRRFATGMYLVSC
UniProt Q13642: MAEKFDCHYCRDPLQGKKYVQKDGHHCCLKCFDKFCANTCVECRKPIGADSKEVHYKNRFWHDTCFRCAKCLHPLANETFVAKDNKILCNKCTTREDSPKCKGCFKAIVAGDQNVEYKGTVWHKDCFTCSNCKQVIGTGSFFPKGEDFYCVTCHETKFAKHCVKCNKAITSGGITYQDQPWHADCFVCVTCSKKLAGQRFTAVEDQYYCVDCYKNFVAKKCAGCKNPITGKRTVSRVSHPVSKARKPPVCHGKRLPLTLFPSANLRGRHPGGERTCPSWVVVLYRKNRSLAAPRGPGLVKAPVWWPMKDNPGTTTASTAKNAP

Compound: Cc1cc(ccc1-c1ccccc1)C(=O)N1CCCN(CC1)C(=O)CCl [compound 10]
Experiment: probe-labelled cysteine peptide fold change vs DMSO (competition) (log2 fold change); higher = less target engagement (more negative = stronger competition)
Conditions: THP-1, incubation time: 4 h
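Also: competitive profiling in live THP-1 cells: cysteine peptides tagged with an iodoacetamide desthiobiotin (IA-DTB) probe, intensity after compound treatment relative to DMSO-treated cells.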

| Target | probe-labelled cysteine peptide fold change (10 µM) | probe-labelled cysteine peptide fold change (50 µM) |
| --- | --- | --- |
| FCHSD1_Q86WN1_88_CLLDATVAGGQTR (UniProt Q86WN1) | -0.14 | -0.354 |
| FANCL_Q9NW38_251_HPTMLPECFFLGADHVVK (UniProt Q9NW38) | -0.0134 | 0.128 |
| FDX1_P10109_152+155_LGCQICLTK (UniProt P10109) | -0.319 | -0.896 |
| FBXL18_Q96ME1_406_HLCQLLAR (UniProt Q96ME1) | -0.0799 | -0.264 |
| FAM206A_Q9NX38_46_ICVITLAESHPVLQSGK (UniProt Q9NX38) | 0.187 | 0.294 |
| FAM208A_Q9UK61_1138_HLLEPLCSDPLK (UniProt Q9UK61) | -0.279 | -0.0561 |
| FASN_P49327_2202_ADEASELACPTPK (UniProt P49327) | -0.288 | -0.114 |
| FASN_P49327_2273_LSIPTYGLQCTR (UniProt P49327) | 0.0467 | 0.0413 |
| FAM160B1_Q5W0V3_78_APVTDTNIPSHLEQMLDILVQEENERESGETGPCMEYLLHHK (UniProt Q5W0V3) | 0.136 | 0.41 |
| FCGRT_P55899_221_ARPSSPGFSVLTCSAFSFYPPELQLR (UniProt P55899) | -0.0251 | -0.13 |
| FASN_P49327_1564_HAQPTCPGAQLCTVYYASLNFR (UniProt P49327) | -0.0736 | -0.205 |
| FBL_P22087_268_ANCIDSTASAEAVFASEVK (UniProt P22087) | 0.0798 | 0.478 |
| FCHSD2_O94868_354_VLNDLECHGAAVSEQSR (UniProt O94868) | 0.0298 | -0.117 |
| FAM76B_Q5HYJ3_73+76_PCQYCNIIAAFIGTK (UniProt Q5HYJ3) | -0.0317 | -0.0972 |
| FCHSD2_O94868_304_DYNLQLFLQENAVFHKPQPFQFQPCDSDTSR (UniProt O94868) | -0.0696 | -0.0577 |
| FBXO30_Q8TB52_570_RFCPSIQGAK (UniProt Q8TB52) | 0.108 | -0.153 |
| FARSB_Q9NSD9_76_IDVPANRYDLLCLEGLVR (UniProt Q9NSD9) | -0.0188 | 0.0236 |
| FBN2_P35556_1812_AVDIDECK (UniProt P35556) | -0.0239 | -0.117 |
| FBL_P22087_99_HEGVFICR (UniProt P22087) | -0.125 | 0.0609 |

| Target | probe-labelled cysteine peptide fold change (10 µM) | probe-labelled cysteine peptide fold change (50 µM) |
| --- | --- | --- |
| FARSB_Q9NSD9_498_HLCAVYYNK (UniProt Q9NSD9) | -0.135 | 0.186 |
| FBLN1_P23142_494_RGYQLSDVDGVTCEDIDECALPTGGHICSYR (UniProt P23142) | -0.208 | -0.45 |
| FBXL18_Q96ME1_383_KAEDDIDSSILETLVASCCNLR (UniProt Q96ME1) | -0.142 | -0.261 |
| FBLN1_P23142_556_CLAFECPENYRR (UniProt P23142) | -0.358 | -0.339 |
| FCHO1_O14526_371_APACSPEAAAAQLR (UniProt O14526) | -0.191 | -0.0316 |
| FAM98A_Q8NCA5_126_MLCVNAPPK (UniProt Q8NCA5) | -0.123 | -0.0384 |
| FAM136A_Q96C01_57_CHVPLAQAQALVTSELEK (UniProt Q96C01) | -0.144 | -0.276 |
| FBXO30_Q8TB52_396_NVDVLSFSHAPSFNFLSNSCWSK (UniProt Q8TB52) | 0.0366 | -0.488 |
| FASN_P49327_1558+1564_HAQPTCPGAQLCTVYYASLNFR (UniProt P49327) | -0.305 | -0.774 |
| FGFR1OP_O95684-3_133_TITQLECLLSIGALHFK (UniProt O95684) | -0.356 | -0.497 |
| FHL1_Q13642-1_276_FVFHQEQVYCPDCAK (UniProt Q13642) | 0.0179 | -0.0229 |
| FANCI_Q9NVI1_650_LEACILTQGDK (UniProt Q9NVI1) | -0.0611 | -0.113 |
| FBXO22_Q8NEZ5_7_MEPVGCCGECR (UniProt Q8NEZ5) | -0.235 | 1.31 |
| FASN_P49327_2010+2024_EACPELDYFVVFSSVSCGR (UniProt P49327) | 0.456 | 0.616 |
| FAM98B_Q52LJ0_93_EMACPYSVLISGDIK (UniProt Q52LJ0) | 0.308 | 0.182 |
| FASN_P49327_1141_AALQEELQLCK (UniProt P49327) | 0.0995 | 0.302 |
| FASN_P49327_634_CPPGVVPACHNSK (UniProt P49327) | 0.258 | 0.0678 |
| FEM1B_Q9UK73_244_ADVVELLLSHADCDR (UniProt Q9UK73) | -0.305 | -0.389 |
| FAM91A1_Q658Y4_232_GFIYLDVPISDDSCIAVPPLEGFVMNR (UniProt Q658Y4) | 0.185 | 0.213 |
